Test results from article PMC8571306.
These are yes or no findings as the source states them, for the method shown. In cells and extracts the contact can be indirect. Here binding means that the protein was enriched with, or labelled near, the bait; the list need not be complete.

By UniProt entry, the sequences of proteins in these tests, tags left out. Residues count along the entry.
UniProt Q9NZQ7, residues 19-290: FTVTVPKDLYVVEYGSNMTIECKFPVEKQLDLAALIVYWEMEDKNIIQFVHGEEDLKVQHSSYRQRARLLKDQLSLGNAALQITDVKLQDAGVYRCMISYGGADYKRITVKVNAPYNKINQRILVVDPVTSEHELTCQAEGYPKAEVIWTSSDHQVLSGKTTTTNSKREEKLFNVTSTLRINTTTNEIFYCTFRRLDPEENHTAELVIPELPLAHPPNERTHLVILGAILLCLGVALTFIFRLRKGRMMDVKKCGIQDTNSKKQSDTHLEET
UniProt P45974: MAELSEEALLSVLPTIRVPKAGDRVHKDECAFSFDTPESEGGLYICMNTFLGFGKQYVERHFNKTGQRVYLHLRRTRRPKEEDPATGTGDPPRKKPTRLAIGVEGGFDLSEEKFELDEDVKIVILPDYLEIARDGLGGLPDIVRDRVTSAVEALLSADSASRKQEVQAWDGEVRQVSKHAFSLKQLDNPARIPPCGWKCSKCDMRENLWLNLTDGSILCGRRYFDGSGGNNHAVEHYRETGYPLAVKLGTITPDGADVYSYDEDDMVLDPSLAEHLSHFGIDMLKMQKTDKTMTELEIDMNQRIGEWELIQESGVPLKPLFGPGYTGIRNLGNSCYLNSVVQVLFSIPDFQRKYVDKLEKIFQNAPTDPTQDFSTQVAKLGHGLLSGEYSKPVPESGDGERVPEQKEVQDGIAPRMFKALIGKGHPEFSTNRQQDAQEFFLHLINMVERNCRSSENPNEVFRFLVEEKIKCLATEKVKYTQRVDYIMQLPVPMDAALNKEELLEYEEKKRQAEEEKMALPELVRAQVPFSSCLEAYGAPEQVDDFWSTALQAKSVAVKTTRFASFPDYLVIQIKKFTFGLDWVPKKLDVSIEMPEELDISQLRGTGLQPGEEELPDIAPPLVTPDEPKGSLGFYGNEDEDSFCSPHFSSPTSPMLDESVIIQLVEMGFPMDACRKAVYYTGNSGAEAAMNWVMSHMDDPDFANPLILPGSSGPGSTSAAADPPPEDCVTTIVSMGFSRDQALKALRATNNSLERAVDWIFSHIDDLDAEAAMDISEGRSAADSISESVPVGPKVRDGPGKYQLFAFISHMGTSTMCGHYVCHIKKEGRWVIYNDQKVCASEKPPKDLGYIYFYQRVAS

Target: Flag-PD-L1 (UniProt Q9NZQ7)
Assay: affinity purification with mass spectrometry; lysates of Flag-PD-L1 transfected H1299 cells, anti-flag affinity beads, extensive washing, silver staining on SDS-PAGE and mass spectrometry

ubiquitin specific peptidase 5 (USP5), endogenous (from UniProt P45974 1-858) (enzyme)
binding: binds
